Results as given in PMC7600770.
Results are given in words; binding and its absence hold for the method and conditions named. Binding seen in cells or lysates may run through a third protein. Some entries that bind do so weakly or less than the wild type.

Chains of the proteins cited; added tags and fusions are not shown. Lines headed by an entry give the natural chain unless they say otherwise; changes in a name come on top.
UniProt P49792: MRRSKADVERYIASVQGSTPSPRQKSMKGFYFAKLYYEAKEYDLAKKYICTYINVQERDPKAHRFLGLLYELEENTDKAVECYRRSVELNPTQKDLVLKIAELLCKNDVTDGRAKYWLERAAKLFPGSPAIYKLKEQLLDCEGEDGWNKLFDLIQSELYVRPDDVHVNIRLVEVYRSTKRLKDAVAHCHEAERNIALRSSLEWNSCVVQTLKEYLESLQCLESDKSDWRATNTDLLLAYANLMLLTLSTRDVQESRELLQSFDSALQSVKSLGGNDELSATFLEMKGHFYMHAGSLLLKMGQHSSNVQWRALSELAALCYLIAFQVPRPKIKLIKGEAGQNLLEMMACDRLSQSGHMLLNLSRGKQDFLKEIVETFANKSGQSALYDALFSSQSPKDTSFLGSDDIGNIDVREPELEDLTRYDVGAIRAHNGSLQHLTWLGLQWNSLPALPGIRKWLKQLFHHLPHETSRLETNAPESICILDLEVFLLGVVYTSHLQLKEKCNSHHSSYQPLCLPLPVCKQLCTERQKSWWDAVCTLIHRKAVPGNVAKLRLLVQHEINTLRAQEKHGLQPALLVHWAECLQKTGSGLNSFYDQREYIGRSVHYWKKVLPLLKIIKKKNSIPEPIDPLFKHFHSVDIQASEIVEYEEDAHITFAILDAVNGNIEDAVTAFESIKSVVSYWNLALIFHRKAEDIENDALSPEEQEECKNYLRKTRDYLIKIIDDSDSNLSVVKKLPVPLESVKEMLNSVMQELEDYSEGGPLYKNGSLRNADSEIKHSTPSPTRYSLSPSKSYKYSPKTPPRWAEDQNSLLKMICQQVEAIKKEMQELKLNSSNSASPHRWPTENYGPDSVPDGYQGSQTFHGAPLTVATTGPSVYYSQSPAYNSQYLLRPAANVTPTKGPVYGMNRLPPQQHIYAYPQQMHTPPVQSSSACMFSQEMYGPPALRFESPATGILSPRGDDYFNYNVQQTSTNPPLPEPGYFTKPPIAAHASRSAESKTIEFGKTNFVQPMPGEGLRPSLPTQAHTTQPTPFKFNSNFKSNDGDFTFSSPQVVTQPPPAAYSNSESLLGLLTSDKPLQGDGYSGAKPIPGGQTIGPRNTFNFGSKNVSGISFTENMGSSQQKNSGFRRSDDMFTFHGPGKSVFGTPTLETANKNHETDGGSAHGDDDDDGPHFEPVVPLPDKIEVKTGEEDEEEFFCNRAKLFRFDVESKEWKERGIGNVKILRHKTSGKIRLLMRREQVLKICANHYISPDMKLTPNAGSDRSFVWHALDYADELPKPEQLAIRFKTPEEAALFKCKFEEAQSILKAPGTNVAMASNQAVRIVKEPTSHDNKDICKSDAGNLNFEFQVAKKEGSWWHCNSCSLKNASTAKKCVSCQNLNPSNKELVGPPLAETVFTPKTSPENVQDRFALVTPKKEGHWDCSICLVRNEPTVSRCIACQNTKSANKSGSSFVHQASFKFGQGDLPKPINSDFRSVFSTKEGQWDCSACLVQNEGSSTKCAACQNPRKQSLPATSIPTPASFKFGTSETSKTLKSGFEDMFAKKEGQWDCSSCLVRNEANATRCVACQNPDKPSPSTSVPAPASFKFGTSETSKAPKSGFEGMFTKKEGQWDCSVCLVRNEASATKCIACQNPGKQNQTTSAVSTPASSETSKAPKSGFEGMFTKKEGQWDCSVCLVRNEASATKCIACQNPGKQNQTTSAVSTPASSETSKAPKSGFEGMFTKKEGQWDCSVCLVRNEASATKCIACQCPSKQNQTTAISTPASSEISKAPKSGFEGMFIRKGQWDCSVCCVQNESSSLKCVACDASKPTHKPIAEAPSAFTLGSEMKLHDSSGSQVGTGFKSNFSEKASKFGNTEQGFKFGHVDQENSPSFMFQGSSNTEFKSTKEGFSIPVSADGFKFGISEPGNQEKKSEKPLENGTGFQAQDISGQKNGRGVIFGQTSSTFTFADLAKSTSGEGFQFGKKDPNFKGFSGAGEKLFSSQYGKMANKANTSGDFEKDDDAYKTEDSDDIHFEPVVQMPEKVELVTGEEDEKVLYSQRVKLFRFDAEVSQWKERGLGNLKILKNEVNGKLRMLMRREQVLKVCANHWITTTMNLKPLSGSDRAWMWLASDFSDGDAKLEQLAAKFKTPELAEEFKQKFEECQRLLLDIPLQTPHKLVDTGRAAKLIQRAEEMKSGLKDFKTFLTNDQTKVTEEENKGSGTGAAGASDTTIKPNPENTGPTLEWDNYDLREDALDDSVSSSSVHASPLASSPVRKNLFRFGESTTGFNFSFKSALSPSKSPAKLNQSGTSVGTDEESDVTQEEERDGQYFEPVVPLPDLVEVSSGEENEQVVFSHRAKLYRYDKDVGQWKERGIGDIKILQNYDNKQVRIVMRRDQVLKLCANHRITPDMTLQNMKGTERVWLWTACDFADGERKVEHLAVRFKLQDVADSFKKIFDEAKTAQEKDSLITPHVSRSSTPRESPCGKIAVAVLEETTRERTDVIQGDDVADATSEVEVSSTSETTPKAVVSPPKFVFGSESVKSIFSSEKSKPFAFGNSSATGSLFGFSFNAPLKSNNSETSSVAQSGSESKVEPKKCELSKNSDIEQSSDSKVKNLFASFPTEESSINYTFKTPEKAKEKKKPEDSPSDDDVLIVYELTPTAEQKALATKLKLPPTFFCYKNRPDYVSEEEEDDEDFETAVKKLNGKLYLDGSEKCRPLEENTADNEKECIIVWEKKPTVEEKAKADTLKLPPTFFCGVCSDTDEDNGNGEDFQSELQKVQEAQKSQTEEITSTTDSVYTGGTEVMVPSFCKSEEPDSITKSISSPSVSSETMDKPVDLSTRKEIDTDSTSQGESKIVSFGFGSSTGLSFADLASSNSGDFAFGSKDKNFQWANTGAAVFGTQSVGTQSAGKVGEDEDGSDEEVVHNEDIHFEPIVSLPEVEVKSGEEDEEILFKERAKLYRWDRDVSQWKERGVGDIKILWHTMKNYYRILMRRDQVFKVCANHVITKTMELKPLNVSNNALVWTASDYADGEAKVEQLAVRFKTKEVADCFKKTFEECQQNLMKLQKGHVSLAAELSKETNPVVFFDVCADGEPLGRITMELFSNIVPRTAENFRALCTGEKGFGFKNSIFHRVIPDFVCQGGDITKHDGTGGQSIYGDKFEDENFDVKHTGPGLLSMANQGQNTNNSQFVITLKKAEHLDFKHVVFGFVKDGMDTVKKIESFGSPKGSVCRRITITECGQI
UniProt O14980: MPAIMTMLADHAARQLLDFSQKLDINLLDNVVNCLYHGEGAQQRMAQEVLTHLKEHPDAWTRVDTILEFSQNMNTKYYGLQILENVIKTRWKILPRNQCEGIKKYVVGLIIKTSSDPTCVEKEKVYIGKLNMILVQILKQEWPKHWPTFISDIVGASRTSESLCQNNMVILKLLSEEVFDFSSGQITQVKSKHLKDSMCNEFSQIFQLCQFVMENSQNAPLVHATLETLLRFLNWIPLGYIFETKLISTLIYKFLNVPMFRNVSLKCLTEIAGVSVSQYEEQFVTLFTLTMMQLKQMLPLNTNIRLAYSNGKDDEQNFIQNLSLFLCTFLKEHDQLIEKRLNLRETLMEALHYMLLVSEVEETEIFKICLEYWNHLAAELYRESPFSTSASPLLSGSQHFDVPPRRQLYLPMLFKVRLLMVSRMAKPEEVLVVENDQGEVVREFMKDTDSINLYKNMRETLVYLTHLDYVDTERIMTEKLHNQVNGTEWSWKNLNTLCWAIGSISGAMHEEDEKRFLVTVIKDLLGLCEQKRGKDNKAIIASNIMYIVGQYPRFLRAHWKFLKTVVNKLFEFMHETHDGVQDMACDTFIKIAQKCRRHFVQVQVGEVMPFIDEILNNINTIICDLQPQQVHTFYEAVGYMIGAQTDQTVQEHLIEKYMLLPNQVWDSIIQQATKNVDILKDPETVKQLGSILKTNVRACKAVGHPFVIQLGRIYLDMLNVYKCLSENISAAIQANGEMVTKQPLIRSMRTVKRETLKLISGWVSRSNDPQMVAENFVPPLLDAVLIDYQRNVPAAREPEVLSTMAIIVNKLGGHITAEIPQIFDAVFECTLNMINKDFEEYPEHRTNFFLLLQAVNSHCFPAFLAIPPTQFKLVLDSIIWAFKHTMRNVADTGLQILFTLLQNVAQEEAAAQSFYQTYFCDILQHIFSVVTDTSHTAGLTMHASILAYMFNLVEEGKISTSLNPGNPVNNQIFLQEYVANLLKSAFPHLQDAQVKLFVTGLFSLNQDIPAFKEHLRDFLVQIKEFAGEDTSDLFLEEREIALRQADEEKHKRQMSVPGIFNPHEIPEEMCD
UniProt Q14974: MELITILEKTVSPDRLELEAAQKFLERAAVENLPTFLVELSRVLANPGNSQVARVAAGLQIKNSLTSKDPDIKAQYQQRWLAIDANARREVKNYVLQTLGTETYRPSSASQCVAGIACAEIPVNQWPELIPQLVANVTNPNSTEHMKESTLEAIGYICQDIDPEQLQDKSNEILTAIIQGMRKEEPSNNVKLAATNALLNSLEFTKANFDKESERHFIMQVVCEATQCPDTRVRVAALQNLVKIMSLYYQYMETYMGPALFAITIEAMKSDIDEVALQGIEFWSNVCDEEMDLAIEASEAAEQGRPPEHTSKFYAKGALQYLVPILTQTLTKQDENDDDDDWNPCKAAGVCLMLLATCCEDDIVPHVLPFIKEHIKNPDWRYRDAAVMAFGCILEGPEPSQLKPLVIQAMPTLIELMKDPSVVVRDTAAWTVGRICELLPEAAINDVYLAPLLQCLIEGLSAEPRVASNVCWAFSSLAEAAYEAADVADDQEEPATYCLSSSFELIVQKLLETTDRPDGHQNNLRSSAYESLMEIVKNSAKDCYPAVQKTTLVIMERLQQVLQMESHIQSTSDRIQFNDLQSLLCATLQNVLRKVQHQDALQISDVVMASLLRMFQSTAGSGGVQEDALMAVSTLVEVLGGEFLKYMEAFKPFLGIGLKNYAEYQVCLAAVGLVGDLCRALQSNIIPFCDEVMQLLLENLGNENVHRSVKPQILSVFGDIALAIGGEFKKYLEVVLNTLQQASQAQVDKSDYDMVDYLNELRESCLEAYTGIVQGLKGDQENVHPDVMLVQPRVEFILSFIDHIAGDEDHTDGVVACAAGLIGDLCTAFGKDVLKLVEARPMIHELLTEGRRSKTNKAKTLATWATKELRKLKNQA

Legend:
Experiment in all cases: proximity ligation; Duolink In Situ Red PLA on MedB1, UH-01 and U2940 cells with primary Abs and PLUS/MINUS probes; no primary Ab as negative control; red dots counted by confocal microscopy
[1] = biological target: RanBP2 (NUP358) (human (endogenous in MedB1, UH-01, U2940)) (UniProt P49792)
[2] = biological target: exportin 1 (XPO1), wild type (human (endogenous in U2940 and K1106)) (UniProt O14980)
[3] = biological target: exportin 1 E571K mutant (XPO1^E571K) (human (endogenous in MedB1 and UH-01)) (UniProt O14980)

Measured: binding

karyopherin β1 (importin β1, KPNB1, IPO1) (from UniProt Q14974 1-876)
binds: all assays above
